Test results published in the supplement of paper PMC9744312.
Structures can show the parent of a compound that is named as a salt. Some of the results follow. This is a noisy data set.

Each compound was assayed on Peyronie's disease tunica albuginea primary fibroblasts (assay: inhibition of TGF-beta1-induced alpha-SMA expression (myofibroblast transformation), relative to TGF-beta1-only and untreated controls; higher = stronger inhibition of myofibroblast transformation). Conditions: 10 µM; TGF-beta1 10 ng/mL; 72 h.
In the case of `CC(=O)Oc1ccccc1C(=O)O.CC(=O)Oc1ccccc1C(=O)O.NC(N)=O` [Carbasalate Calcium], the “inhibition of TGF-beta1-induced alpha-SMA expression” value (“inhibition” below) is reported as 6.11%. For `CC1(C)S[C@@H]2[C@H](NC(=O)[C@H](N)c3ccccc3)C(=O)N2[C@H]1C(=O)OCOC(=O)[C@@H]1N2C(=O)C[C@H]2S(=O)(=O)C1(C)C` [Sultamicillin], the “inhibition” value was 7.28%. With `O=C1c2cccc3c2[C@H](CCC3)CN1[C@@H]1CN2CCC1CC2` [Palonosetron HCl] the “inhibition” value was 58.3%. With `NCC[C@H](O)C(=O)N[C@@H]1C[C@H](N)[C@@H](O[C@H]2O[C@H](CN)[C@@H](O)[C@H](O)[C@H]2O)[C@H](O)[C@H]1O[C@H]1O[C@H](CO)[C@@H](O)[C@H](N)[C@H]1O` [Amikacin disulfate] the “inhibition” value was -29.6%. With `NCC[C@H](O)C(=O)N[C@@H]1C[C@H](N)[C@@H](O[C@H]2O[C@H](CN)[C@@H](O)[C@H](O)[C@H]2O)[C@H](O)[C@H]1O[C@H]1O[C@H](CO)[C@@H](O)[C@H](N)[C@H]1O` [Amikacin hydrate] the “inhibition” value was 21.2%. With `CC(C)CN(C[C@@H](O)[C@H](Cc1ccccc1)NC(=O)O[C@H]1CO[C@H]2OCC[C@H]21)S(=O)(=O)c1ccc(N)cc1` [Darunavir] the “inhibition” value was -1.68%. In the case of `CC(C)CN(C[C@@H](O)[C@H](Cc1ccccc1)NC(=O)O[C@H]1CO[C@H]2OCC[C@H]21)S(=O)(=O)c1ccc(N)cc1` [Darunavir Ethanolate], the “inhibition” value is reported as 8.49%. With `O=C(O)CSCC(=O)NC1CCSC1=O` (centres undefined) [Erdosteine] the “inhibition” value was -4.43%. With `COc1cc(/C=C/C(=O)CC(=O)/C=C/c2ccc(O)c(OC)c2)ccc1O` [Curcumin] the “inhibition” value was 9.18%. In the case of `Cc1nc2n(c(=O)c1CCN1CCC(c3noc4cc(F)ccc34)CC1)CCCC2O` (centres undefined) [Paliperidone], the “inhibition” value is reported as 51.4%. With `Clc1ccc(C(Cn2ccnc2)OCc2csc3c(Cl)cccc23)c(Cl)c1` (centres undefined) [Sertaconazole nitrate] the “inhibition” value was 6.32%. `CCOc1ccc(NC(=O)CC(C)O)cc1` (centres undefined) [Bucetin] was tested, and the “inhibition” value was 8.31%. In the case of `CC(=O)OCC1=C(C(=O)O)N2C(=O)[C@@H](NC(=O)Cc3cccs3)[C@H]2SC1` [Cephalothin], the “inhibition” value is reported as 21.5%. With `CCCCc1nc(Cl)c(CO)n1Cc1ccc(-c2ccccc2-c2nnn[nH]2)cc1` [Losartan Potassium (DuP 753)] the “inhibition” value was -13.2%. With `CCCCc1nc(Cl)c(CO)n1Cc1ccc(-c2ccccc2-c2nnn[nH]2)cc1` [Losartan] the “inhibition” value was 7.66%. For `CC1(C)S[C@@H]2[C@H](NC(=O)Cc3ccccc3)C(=O)N2[C@H]1C(=O)O` [Penicillin G Sodium], the “inhibition” value was -22.1%. With `CC1(C)S[C@@H]2[C@H](NC(=O)Cc3ccccc3)C(=O)N2[C@H]1C(=O)O` [Benzylpenicillin potassium] the “inhibition” value was -1.84%. `O=C1CCC(N2C(=O)c3ccccc3C2=O)C(=O)N1` (centres undefined) [Thalidomide] was tested, and the “inhibition” value was 17.7%. With `c1cn2cc(-c3ccc4cn[nH]c4c3)nc(Nc3ccc(N4CCOCC4)cc3)c2n1` [Entospletinib (GS-9973)] the “inhibition” value was 85.8%. For `O=C1OC(CN2CCOCC2)CN1/N=C/c1ccc([N+](=O)[O-])o1` (centres undefined) [Furaltadone HCl], the “inhibition” value was -45.1%. `C[n+]1ccccc1C=NO` [Pralidoxime Iodide] was tested, and the “inhibition” value was 8.88%. In the case of `Cc1ccsc1C(=CCCN1CCC[C@@H](C(=O)O)C1)c1sccc1C` [Tiagabine], the “inhibition” value is reported as -12.4%. For `Cc1ccsc1C(=CCCN1CCC[C@@H](C(=O)O)C1)c1sccc1C` [Tiagabine hydrochloride], the “inhibition” value was 8.48%. With `CNCCCN1c2ccccc2CCc2ccccc21` [Desipramine Hydrochloride] the “inhibition” value was 50.3%. With `O=C(O)CCNC(=O)c1ccc(/N=N/c2ccc(O)c(C(=O)O)c2)cc1` [Balsalazide disodium] the “inhibition” value was 2.71%. With `Cc1cccc(Nc2ccccc2C(=O)O)c1C` [Mefenamic Acid] the “inhibition” value was 14.6%. In the case of `CCC(C)n1ncn(-c2ccc(N3CCN(c4ccc(OCC5COC(Cn6cncn6)(c6ccc(Cl)cc6Cl)O5)cc4)CC3)cc2)c1=O` (centres undefined) [Itraconazole], the “inhibition” value is reported as 15.1%. In the case of `CCOc1cc(N)c(Cl)cc1C(=O)NCC1CN(Cc2ccc(F)cc2)CCO1` (centres undefined) [Mosapride Citrate], the “inhibition” value is reported as -0.136%. For `CCOc1cc(N)c(Cl)cc1C(=O)NCC1CN(Cc2ccc(F)cc2)CCO1` (centres undefined) [Mosapride], the “inhibition” value was 7.52%. With `C[n+]1ccccc1/C=N/O` [Pralidoxime chloride] the “inhibition” value was -2.55%. In the case of `C[C@H]1[C@H](OC(=O)CCC(=O)O)O[C@@H]2O[C@@]3(C)CC[C@H]4[C@H](C)CC[C@@H]1[C@@]24OO3` [Artesunate], the “inhibition” value is reported as 4.08%. With `CC(C)NCC(O)c1cc(O)cc(O)c1` (centres undefined) [Metaproterenol Sulfate] the “inhibition” value was 18.8%. In the case of `CCc1cnn2c(NCc3ccc[n+]([O-])c3)cc(N3CCCC[C@H]3CCO)nc12`, the “inhibition” value is reported as over 100%. In the case of `O=C1NC(=O)[C@@H](c2cn3c4c(cccc24)CCC3)[C@@H]1c1c[nH]c2ccccc12` [Tivantinib (ARQ 197)], the “inhibition” value is reported as 33%. With `COc1ccccc1N1CCN(CCCNc2cc(=O)n(C)c(=O)n2C)CC1` [Urapidil HCl] the “inhibition” value was 74.6%. In the case of `O=C1/C(=C2\Nc3ccc(S(=O)(=O)O)cc3C2=O)Nc2ccc(S(=O)(=O)O)cc21` [Indigo carmine], the “inhibition” value is reported as 28.8%. In the case of `COc1nc(N)nc2c1ncn2[C@@H]1O[C@H](CO)[C@@H](O)[C@@H]1O` [Nelarabine], the “inhibition” value is reported as -9.84%. For `CCC(=O)OCC(=O)[C@@]1(OC(=O)CC)[C@@H](C)C[C@H]2[C@@H]3CCC4=CC(=O)C=C[C@]4(C)[C@@]3(Cl)[C@@H](O)C[C@@]21C` [Beclomethasone dipropionate], the “inhibition” value was 62.8%. In the case of `O=C(/C=C/C=C/c1ccc2c(c1)OCO2)N1CCCCC1` [Piperine], the “inhibition” value is reported as 3.89%. In the case of `CCN(CC)Cc1cc(Nc2ccnc3cc(Cl)ccc23)ccc1O` [Amodiaquine dihydrochloride dihydrate], the “inhibition” value is reported as over 100%. `CCN(CC)Cc1cc(Nc2ccnc3cc(Cl)ccc23)ccc1O` [Amodiaquine hydrochloride] was tested, and the “inhibition” value was 56.3%. With `C[C@H](CSC(=O)c1ccccc1)C(=O)N1C[C@@H](Sc2ccccc2)C[C@H]1C(=O)O` [Zofenopril calcium] the “inhibition” value was 25.8%. `CN1CCOC(c2ccccc2)c2ccccc2C1` (centres undefined) [Nefopam HCl] was tested, and the “inhibition” value was 8.1%. `CN1CCC(=C2c3ccccc3CCc3sccc32)CC1` [Pizotifen Malate] was tested, and the “inhibition” value was 47.6%. With `COc1ncc(-c2ccc3nccc(-c4ccnnc4)c3c2)cc1NS(=O)(=O)c1ccc(F)cc1F` the “inhibition” value was over 100%. In the case of `C=C[C@@H]1C[C@]1(NC(=O)[C@@H]1C[C@@H]2CN1C(=O)[C@H](C(C)(C)C)NC(=O)O[C@@H]1C[C@H]1CCCCCc1nc3ccc(OC)cc3nc1O2)C(=O)NS(=O)(=O)C1CC1` [Grazoprevir], the “inhibition” value is reported as 3.27%. With `CCN(CC)CCOc1ccc(C(=C(Cl)c2ccccc2)c2ccccc2)cc1` [Clomifene citrate] the “inhibition” value was 79.3%. With `C[C@]1(COc2ccc(N3CCC(Oc4ccc(OC(F)(F)F)cc4)CC3)cc2)Cn2cc([N+](=O)[O-])nc2O1` [Delamanid] the “inhibition” value was 28.3%. For `CCCCNc1ccc(C(=O)OCCN(C)C)cc1` [Tetracaine HCl], the “inhibition” value was 10%. In the case of `CCCCC(=O)N(Cc1ccc(-c2ccccc2-c2nn[nH]n2)cc1)C(C(=O)O)C(C)C.CCOC(=O)C(C)CC(Cc1ccc(-c2ccccc2)cc1)NC(=O)CCC(=O)O` (centres undefined) [Sacubitril/valsartan (LCZ696)], the “inhibition” value is reported as 0.83%. For `CCCCCOC(=O)Nc1nc(=O)n([C@@H]2O[C@H](C)[C@@H](O)[C@H]2O)cc1F` [Capecitabine], the “inhibition” value was -61.2%. With `CC(C)=CCC/C(C)=C/CC/C(C)=C/CSc1ccccc1C(=O)O` [Salirasib] the “inhibition” value was 3.04%. For `Cc1ncc(COP(=O)(O)O)c(C=O)c1O` [Pyridoxal phosphate], the “inhibition” value was 88.6%. For `CC(COc1ccccc1Cc1ccccc1)N1CCCCC1` (centres undefined) [Benproperine phosphate], the “inhibition” value was 33.5%. `CC(O)(P(=O)(O)O)P(=O)(O)O` [Etidronate] was tested, and the “inhibition” value was 58.3%. For `O=C(O)COCCN1CCN([C@H](c2ccccc2)c2ccc(Cl)cc2)CC1` [Levocetirizine Dihydrochloride], the “inhibition” value was 34.4%. `Cc1cnc(C(=O)NCCc2ccc(S(=O)(=O)NC(=O)NC3CCCCC3)cc2)cn1` [Glipizide] was tested, and the “inhibition” value was -2.53%. `COc1ccc2c(O[C@@H]3C[C@H]4C(=O)N[C@]5(C(=O)NS(=O)(=O)C6CC6)C[C@H]5/C=C\CCCCN(C)C(=O)[C@@H]4C3)cc(-c3nc(C(C)C)cs3)nc2c1C` [Simeprevir] was tested, and the “inhibition” value was -3.57%. With `O=C1[C@H](CC[C@H](O)c2ccc(F)cc2)[C@@H](c2ccc(O)cc2)N1c1ccc(F)cc1` [Ezetimibe] the “inhibition” value was 11.1%. `COC(=O)C1=C(C)NC(C)=C(C(=O)OCCN(C)Cc2ccccc2)C1c1cccc([N+](=O)[O-])c1` (centres undefined) [Nicardipine HCl] was tested, and the “inhibition” value was -30.5%. In the case of `COC(=O)C1=C(C)NC(C)=C(C(=O)OCCN(C)Cc2ccccc2)C1c1cccc([N+](=O)[O-])c1` (centres undefined) [Nicardipine], the “inhibition” value is reported as 29.7%. In the case of `OC[C@H]1O[C@@H](c2ccc(Cl)c(Cc3ccc(O[C@H]4CCOC4)cc3)c2)[C@H](O)[C@@H](O)[C@@H]1O`, the “inhibition” value is reported as 65.8%. In the case of `CCCC(=O)[O-].[Na+]` [Sodium butyrate], the “inhibition” value is reported as 45.3%. With `C/C=C(/C)C(=O)O[C@H]1[C@H](OC(C)=O)[C@@]2(CO)C(CC1(C)C)C1=CCC3[C@@]4(C)CCC(O[C@@H]5O[C@H](C(=O)O)[C@@H](O[C@@H]6O[C@H](CO)[C@@H](O)[C@H](O)[C@H]6O)[C@H](O)[C@H]5O[C@@H]5O[C@H](CO)[C@@H](O)[C@H](O)[C@H]5O)[C@](C)(CO)C4CC[C@@]3(C)[C@]1(C)C[C@H]2O.C/C=C(\C)C(=O)O[C@H]1[C@H](OC(C)=O)[C@@]2(CO)C(CC1(C)C)C1=CCC3[C@@]4(C)CCC(O[C@@H]5O[C@H](C(=O)O)[C@@H](O[C@@H]6O[C@H](CO)[C@@H](O)[C@H](O)[C@H]6O)[C@H](O)[C@H]5O[C@@H]5O[C@H](CO)[C@@H](O)[C@H](O)[C@H]5O)[C@](C)(CO)C4CC[C@@]3(C)[C@]1(C)C[C@H]2O` (some centres undefined) [Escin] the “inhibition” value was 54.4%.
